Test results taken from publication PMC6799934.
These are yes or no findings as the source states them, for the method shown. Binding seen in cells or lysates may run through a third protein. A result given as binding can be weak or reduced; the word gives no strength. For some assays here: Where a sequence is shown, tags or fusion partners need not be part of it.

Amino acid sequences for entries named in this document (tags omitted). A change or cut given only in a name is not applied to a line headed by its entry.
UniProt D9N195: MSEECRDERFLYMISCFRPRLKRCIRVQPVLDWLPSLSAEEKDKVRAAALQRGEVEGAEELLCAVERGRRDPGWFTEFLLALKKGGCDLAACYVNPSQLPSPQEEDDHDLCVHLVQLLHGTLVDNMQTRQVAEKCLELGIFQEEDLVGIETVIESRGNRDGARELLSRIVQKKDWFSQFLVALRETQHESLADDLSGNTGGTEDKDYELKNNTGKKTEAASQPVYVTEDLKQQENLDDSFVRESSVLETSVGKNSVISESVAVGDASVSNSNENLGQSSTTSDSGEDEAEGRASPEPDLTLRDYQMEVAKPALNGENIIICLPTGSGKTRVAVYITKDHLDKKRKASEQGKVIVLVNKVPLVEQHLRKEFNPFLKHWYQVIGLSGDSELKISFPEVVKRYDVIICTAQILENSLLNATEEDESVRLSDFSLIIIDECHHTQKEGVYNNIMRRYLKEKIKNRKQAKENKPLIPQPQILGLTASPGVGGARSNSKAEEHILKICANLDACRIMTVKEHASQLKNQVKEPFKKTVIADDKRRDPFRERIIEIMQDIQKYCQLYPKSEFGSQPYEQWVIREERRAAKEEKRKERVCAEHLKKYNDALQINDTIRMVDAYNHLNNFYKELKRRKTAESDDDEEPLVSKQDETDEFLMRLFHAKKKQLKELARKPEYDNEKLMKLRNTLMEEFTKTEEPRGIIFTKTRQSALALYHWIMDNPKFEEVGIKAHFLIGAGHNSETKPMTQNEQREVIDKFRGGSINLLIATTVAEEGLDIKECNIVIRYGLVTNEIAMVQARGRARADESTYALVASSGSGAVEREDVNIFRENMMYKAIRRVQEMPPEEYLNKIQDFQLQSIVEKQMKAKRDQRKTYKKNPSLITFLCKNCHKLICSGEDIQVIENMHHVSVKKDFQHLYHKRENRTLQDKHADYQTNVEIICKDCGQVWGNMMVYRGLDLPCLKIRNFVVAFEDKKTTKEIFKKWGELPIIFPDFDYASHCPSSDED

Assays:
[1] = molecular target: T1, STING-HA (chicken STING) (chicken) (UniProt E1C7U0); assay: co-IP; HEK293T cells cotransfected with tagged plasmids for 36 h; lysed in ice-cold Pierce IP buffer with protease inhibitors; antibodies at 4 °C overnight, Protein G Sepharose 6 h, six washes with PBS; immunoblot
T1 sequence: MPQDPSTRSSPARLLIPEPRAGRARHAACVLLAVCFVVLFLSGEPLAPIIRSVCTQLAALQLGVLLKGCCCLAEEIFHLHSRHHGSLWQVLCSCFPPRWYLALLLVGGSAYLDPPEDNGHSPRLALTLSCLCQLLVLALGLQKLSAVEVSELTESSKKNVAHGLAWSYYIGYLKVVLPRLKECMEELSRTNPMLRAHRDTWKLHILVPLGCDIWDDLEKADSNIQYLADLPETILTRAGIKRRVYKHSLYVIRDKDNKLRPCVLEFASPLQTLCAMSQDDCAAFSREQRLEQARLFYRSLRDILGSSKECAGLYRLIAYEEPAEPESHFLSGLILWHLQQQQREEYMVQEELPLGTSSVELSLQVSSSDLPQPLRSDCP

[2] = molecular target: T2, STING-Flag (chicken STING), expressed in DF-1 (chicken) (UniProt E1C7U0); assay: co-IP; DF-1 cells cotransfected with tagged plasmids for 36 h, with or without Meq; lysed in ice-cold Pierce IP buffer; antibodies at 4 °C overnight, Protein G Sepharose 6 h, six washes with PBS; immunoblot
T2 sequence: T1 sequence

[3] = molecular target: T3, STING, endogenous in CEFs (chicken (endogenous in CEFs)) (UniProt E1C7U0); assay: co-IP; endogenous proteins from CEFs left uninfected or infected with MDV (Fig 5D); CEFs mock infected or infected with MDV-WT or MDV-dMeq and then transfected with ISD for 12 h (Fig 6C); immunoprecipitation and immunoblot with the indicated antibodies
T3 sequence: T1 sequence

[4] = molecular target: T4, GST-STING (chicken) (UniProt E1C7U0); assay: pull-down; GST-STING or GST-IRF7 bound to glutathione agarose beads, incubated 4 h at 4 °C with lysates of HEK293T cells transiently expressing Meq-Flag; five washes with NP-40 lysis buffer; Coomassie staining and/or immunoblot; only the target purified
T4 sequence: T1 sequence

Substance	binding [2]	also measured
C-terminal transactivation domain of Meq (aa 122-339) (Marek's disease virus (MDV), GA strain) (domain or fragment)		binding [1]: binds
IKKβ-HA (chicken IκB kinase β)	binds	
MDA5-HA (chicken melanoma differentiation-associated gene 5) (from UniProt D9N195)	binds	
Meq expressed in MDV-infected CEFs (Marek's disease virus (MDV), GA strain)		binding [3]: binds
Meq-Flag (MDV oncoprotein Meq, full length) (Marek's disease virus (MDV), GA strain)		binding [1]: binds; binding [4]: binds
Meq-Myc (Marek's disease virus (MDV), GA strain)	binds	
TBK1 (chicken), expressed in DF-1	binds	
